From patent publication US20110287089A1, “USE OF A SACCHAROMYCES CEREVISIAE MITOCHONDRIAL NUCLEIC ACIDS FRACTION FOR IMMUNE STIMULATION” (priority 2009, published 2011)
Part of at least one peptide drawing is inferred or uncertain, most often the ends. Peptide text beside a SMILES is read from it. * marks the point of attachment. X1 = CCCCCCCCCCCCCCCC(=O)OCC(C*)OC(=O)CCCCCCCCCCCCCCC

Amino acid sequences for entries named in this document (tags omitted). Residues count along the entry.
UniProt O60603, 21-784: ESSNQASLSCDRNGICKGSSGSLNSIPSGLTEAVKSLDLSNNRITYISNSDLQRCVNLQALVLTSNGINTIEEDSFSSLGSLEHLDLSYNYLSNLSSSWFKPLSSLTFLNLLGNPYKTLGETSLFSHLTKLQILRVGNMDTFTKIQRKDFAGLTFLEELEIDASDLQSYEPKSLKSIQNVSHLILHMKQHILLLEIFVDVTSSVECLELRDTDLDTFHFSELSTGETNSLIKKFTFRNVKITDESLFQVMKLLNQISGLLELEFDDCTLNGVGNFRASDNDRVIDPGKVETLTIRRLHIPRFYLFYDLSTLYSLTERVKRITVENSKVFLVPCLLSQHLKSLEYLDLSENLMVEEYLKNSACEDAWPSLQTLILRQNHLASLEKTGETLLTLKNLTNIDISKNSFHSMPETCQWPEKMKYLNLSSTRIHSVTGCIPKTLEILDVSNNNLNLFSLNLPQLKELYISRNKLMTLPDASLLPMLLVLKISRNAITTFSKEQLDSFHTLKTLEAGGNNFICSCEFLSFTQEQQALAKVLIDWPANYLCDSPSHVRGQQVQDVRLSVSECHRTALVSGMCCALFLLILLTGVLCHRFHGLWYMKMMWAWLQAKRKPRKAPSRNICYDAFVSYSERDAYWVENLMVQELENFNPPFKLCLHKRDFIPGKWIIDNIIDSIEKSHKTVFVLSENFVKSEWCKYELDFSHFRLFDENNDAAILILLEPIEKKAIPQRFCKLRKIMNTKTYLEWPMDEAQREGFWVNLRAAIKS
UniProt Q9Y2C9, 32-796: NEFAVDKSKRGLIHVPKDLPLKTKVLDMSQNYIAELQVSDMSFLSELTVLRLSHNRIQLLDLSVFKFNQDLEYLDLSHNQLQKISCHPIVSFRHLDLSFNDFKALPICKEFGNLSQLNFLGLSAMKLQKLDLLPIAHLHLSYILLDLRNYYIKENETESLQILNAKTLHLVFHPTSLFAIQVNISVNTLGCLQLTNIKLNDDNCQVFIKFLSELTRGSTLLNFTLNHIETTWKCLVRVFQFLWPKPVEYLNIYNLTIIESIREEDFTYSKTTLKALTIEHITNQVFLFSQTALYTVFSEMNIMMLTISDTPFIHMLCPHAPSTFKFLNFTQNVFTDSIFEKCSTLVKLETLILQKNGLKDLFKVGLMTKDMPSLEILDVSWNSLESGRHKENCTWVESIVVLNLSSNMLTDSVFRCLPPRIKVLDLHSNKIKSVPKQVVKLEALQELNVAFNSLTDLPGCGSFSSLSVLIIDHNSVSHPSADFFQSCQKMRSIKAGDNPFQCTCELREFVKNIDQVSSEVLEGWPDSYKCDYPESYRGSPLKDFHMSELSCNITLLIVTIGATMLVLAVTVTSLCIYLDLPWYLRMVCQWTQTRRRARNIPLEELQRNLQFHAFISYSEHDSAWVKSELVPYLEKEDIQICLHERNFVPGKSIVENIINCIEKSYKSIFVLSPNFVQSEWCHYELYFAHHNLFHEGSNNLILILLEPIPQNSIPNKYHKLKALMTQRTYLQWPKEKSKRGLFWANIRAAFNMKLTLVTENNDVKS

How the values were obtained:
[1] = molecular target: T1, hTLR2/6 (Homo sapiens, UniProt O60603+Q9Y2C9); format: cell-based; settings: hTLR 2/6-luc clone, control TLR ligand
T1 construct: host or cells: HEK-293 (293/hTLR2/6, clone hTLR 2/6-luc)
Protocol: (§1) Cells: Human embryonic kidney cells 293 (HEK) were stably transfected with plasmids allowing for the constitutive expression of one or two Toll like Receptors of human origin (hTLR). The resulting cell lines 293/hTLR2-CD14, 293/hTLR3, 293/hTLR4-MD2-CD14, 293/hTLR5, 293/hTLR2/6, 293/hTLR7, 293/hTLR8 and 293/hTLR9 were purchased from InvivoGen (San Diego, Calif., USA). All cell lines were cultivated in the presence of Blasticidin S (10 μg/ml, InvivoGen) in Dulbecco's […] Eagle's medium (DMEM) supplemented with 10% fetal calf serum, 40 μg/ml Gentamycin, 2 mM Glutamine, 1 mM sodium pyruvate (Sigma) and 1× Non Essential Amino acids (NEAA, Gibco). In the case of 293/hTLR2-CD14 and 293/hTLR4-MD2-CD14 Hygromycin B was added to a concentration of 100 μg/ml. […]
(§2) In vitro TLR tests—method: Cells diluted in DMEM supplemented with 2% fetal calf serum, 40 μg/ml Gentamycin, 2 mM Glutamine, 1 mM sodium pyruvate (Sigma) and 1×MEM non essential amino acids (NEAA, Gibco) were seeded in 96 well plates. […] Firefly luciferase activity in 10 μl lysate was quantified by integrate measurement of flash luminescence over 1 sec (LB96 P Microlumat, Berthold) after addition of 50 μl luciferase revelation buffer (1× luciferase revelation buffer: 20 mM Tris pH 7.8, 1.07 mM MgCl2, 2.7 mM MgSO4, 0.1 mM EDTA, 33.3 mM DTT, 470 μM luciferine 530 μM ATP and 270 μM CoEnzyme A). […]

[2] = molecular target: T2, hTLR2 (Homo sapiens, UniProt O60603); format: cell-based; settings: hTLR 2-luc clone, control TLR ligand
T2 construct: host or cells: HEK-293 (293/hTLR2-CD14, clone hTLR 2-luc)
Protocol: as §1, §2

CCCCCCCCCCCCCCCC(=O)OCC(CSC[C@H](N)C(=O)NCC(=O)N[C@@H](CC(=O)O)C(=O)N1CCC[C@H]1C(=O)N[C@@H](CCCCN)C(=O)N[C@@H](Cc1c[nH]cn1)C(=O)N1CCC[C@H]1C(=O)N[C@@H](CCCCN)C(=O)N[C@@H](CO)C(=O)N[C@@H](Cc1ccccc1)C(=O)O)OC(=O)CCCCCCCCCCCCCCC (some centres unmarked) [FSL-1] (H-C(X1)GDPKHPKSF-OH; N-terminus and C-terminus assumed)
EC50 [1]: 0.64 nM
EC50 [2]: 2.9 nM
